Measurements taken from the supplement of paper PMC10849652.
The other results are listed elsewhere or left out.

The chains behind the UniProt entries cited, without tags or fusion partners. Where a name states a change or a piece, a line headed by the entry shows the natural chain unless it says otherwise.
UniProt O94898: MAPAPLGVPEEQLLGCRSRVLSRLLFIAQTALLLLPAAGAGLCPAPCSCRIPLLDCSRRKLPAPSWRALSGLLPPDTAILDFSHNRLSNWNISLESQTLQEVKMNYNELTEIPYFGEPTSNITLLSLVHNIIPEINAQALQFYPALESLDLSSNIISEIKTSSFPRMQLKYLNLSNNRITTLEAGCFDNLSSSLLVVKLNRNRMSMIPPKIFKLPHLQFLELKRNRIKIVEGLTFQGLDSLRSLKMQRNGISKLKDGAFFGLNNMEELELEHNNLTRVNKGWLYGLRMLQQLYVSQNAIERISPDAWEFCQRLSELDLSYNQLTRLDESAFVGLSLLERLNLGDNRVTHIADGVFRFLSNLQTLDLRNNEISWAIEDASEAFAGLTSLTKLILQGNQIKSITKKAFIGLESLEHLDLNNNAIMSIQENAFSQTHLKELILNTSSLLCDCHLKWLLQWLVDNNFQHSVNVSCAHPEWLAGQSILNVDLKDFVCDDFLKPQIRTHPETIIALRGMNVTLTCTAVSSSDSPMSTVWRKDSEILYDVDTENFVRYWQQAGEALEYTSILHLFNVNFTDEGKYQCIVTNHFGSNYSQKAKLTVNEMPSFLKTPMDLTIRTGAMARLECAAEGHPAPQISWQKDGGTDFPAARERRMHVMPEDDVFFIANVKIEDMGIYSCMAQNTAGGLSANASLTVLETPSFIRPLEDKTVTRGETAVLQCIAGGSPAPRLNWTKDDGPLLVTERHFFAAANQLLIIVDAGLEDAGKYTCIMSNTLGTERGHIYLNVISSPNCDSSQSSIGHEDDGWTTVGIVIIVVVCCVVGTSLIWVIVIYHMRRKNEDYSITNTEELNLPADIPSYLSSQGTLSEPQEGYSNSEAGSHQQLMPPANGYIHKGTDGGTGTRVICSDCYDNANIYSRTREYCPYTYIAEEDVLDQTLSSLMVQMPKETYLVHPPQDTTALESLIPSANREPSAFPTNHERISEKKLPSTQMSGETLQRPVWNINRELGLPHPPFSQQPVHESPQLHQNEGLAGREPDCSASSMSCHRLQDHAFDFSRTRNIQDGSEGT
UniProt Q9BQD3: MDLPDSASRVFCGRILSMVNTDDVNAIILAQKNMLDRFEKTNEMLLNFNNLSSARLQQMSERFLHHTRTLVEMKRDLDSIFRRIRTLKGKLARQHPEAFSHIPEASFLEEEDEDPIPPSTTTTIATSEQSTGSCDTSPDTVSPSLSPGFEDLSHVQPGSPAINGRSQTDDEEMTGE
UniProt P25791: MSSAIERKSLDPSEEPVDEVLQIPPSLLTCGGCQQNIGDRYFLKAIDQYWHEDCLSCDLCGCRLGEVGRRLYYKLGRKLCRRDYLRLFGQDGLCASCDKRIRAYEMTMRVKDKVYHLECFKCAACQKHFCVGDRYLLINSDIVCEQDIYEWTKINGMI
UniProt Q9BU23: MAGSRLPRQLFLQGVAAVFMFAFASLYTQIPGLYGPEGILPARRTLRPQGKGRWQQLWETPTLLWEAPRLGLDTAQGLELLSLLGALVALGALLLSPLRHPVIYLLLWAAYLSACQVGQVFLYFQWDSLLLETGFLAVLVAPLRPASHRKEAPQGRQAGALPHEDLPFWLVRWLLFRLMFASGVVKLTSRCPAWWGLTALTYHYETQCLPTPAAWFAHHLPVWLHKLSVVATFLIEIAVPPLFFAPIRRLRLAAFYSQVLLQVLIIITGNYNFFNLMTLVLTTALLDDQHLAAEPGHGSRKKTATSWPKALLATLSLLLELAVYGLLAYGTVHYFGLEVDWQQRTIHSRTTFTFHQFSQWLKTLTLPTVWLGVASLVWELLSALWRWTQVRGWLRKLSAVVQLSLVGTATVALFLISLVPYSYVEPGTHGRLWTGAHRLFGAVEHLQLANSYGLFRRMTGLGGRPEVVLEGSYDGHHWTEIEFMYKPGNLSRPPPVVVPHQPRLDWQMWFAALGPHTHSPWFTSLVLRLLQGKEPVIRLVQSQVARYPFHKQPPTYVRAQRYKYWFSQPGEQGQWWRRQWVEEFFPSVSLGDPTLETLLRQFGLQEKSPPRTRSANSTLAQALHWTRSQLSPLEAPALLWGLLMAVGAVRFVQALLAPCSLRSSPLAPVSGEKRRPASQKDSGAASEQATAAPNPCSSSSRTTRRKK
UniProt Q14657: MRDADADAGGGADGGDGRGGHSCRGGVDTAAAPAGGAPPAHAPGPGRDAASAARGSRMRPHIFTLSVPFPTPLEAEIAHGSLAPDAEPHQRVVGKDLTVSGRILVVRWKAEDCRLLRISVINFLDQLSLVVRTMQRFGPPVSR
UniProt Q86UP2: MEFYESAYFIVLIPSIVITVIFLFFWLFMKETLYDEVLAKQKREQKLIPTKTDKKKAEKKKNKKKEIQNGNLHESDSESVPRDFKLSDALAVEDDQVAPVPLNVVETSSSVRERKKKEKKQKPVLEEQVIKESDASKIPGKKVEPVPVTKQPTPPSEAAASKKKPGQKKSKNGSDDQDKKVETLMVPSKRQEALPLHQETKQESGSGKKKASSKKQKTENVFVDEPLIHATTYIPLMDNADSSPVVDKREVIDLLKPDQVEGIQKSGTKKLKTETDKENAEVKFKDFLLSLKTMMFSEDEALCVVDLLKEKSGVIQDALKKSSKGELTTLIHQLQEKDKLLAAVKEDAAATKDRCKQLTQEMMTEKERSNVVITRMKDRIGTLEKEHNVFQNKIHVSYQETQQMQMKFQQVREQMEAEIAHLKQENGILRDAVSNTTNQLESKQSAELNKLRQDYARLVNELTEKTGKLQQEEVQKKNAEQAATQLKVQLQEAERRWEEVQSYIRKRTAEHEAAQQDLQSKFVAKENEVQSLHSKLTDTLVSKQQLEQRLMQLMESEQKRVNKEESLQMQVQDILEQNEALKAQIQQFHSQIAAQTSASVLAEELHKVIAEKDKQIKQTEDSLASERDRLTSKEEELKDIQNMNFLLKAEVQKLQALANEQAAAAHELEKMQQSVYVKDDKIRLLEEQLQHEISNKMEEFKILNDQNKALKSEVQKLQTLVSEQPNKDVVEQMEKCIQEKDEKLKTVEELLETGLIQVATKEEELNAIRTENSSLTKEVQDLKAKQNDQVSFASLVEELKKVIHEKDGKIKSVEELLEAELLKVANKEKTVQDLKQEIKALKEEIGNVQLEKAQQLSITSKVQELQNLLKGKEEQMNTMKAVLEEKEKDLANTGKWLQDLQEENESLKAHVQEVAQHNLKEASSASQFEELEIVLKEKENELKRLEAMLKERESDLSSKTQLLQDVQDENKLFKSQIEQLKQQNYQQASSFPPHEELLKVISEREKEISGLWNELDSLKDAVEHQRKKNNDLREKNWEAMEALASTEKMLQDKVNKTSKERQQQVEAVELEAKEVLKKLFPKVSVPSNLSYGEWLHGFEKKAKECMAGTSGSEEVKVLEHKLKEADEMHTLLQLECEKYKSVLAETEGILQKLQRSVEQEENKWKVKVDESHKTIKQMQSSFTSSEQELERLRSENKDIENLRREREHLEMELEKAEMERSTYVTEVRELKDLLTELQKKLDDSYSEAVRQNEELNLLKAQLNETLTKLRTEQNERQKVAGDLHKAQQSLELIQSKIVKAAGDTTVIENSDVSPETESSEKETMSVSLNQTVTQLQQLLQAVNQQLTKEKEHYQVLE
UniProt Q92604: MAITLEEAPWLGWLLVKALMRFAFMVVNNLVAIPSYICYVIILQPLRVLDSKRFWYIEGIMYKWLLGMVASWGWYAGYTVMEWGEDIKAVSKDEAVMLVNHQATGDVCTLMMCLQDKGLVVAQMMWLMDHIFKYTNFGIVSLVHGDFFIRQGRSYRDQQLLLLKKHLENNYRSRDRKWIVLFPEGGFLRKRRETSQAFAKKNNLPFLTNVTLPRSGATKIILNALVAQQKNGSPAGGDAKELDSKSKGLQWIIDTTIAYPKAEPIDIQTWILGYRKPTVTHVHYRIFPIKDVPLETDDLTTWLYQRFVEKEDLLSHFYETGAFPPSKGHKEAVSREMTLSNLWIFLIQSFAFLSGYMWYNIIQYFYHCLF
UniProt Q86U70: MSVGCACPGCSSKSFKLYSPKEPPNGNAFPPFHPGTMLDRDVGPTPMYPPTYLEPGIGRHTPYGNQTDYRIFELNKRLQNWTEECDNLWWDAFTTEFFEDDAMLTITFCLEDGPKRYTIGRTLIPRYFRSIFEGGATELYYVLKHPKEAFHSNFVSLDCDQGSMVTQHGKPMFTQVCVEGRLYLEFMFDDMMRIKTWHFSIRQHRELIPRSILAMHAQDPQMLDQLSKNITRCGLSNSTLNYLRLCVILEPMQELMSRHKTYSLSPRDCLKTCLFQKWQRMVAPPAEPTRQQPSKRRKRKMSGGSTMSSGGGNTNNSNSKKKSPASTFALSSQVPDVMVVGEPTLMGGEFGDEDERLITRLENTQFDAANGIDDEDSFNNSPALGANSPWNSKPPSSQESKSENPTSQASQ
UniProt P09382, whole entry, looked up: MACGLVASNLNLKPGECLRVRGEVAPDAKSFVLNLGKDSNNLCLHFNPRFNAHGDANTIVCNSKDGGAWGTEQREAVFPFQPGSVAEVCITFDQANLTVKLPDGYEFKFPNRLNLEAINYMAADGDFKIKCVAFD
UniProt Q9NT99: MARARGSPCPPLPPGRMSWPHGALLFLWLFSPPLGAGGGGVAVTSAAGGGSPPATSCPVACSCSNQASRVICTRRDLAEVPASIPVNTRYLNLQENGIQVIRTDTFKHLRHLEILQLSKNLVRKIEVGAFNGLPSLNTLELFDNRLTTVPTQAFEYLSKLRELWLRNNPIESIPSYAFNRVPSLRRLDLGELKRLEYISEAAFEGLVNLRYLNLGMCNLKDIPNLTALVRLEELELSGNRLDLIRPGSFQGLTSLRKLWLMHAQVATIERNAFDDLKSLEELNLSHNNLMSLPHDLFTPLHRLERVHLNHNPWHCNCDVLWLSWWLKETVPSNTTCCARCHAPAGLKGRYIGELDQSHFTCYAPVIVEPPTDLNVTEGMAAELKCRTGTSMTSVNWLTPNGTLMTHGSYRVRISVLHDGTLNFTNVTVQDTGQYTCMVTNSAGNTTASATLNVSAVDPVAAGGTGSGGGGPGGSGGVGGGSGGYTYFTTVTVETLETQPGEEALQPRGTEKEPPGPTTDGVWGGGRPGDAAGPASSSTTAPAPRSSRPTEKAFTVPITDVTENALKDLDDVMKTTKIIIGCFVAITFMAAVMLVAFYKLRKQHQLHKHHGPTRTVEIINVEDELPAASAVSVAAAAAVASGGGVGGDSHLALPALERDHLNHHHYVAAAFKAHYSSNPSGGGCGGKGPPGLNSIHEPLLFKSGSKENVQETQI
UniProt Q14739: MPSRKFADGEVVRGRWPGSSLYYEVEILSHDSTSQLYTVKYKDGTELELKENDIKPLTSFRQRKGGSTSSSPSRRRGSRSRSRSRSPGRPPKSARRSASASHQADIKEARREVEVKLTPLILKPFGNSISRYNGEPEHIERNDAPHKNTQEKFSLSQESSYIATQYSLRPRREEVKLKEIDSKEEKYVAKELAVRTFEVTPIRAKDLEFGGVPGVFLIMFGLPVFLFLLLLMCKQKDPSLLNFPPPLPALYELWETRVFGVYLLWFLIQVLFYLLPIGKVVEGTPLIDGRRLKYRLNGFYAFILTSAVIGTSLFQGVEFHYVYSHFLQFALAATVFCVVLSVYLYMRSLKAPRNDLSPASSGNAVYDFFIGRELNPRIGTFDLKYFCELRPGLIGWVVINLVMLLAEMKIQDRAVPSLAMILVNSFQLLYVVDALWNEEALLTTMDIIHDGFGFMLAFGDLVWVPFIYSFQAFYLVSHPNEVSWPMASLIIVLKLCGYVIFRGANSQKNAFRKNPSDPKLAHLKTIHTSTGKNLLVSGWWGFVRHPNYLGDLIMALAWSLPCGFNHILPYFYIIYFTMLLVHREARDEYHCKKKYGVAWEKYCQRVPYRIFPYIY
UniProt Q9H6V9: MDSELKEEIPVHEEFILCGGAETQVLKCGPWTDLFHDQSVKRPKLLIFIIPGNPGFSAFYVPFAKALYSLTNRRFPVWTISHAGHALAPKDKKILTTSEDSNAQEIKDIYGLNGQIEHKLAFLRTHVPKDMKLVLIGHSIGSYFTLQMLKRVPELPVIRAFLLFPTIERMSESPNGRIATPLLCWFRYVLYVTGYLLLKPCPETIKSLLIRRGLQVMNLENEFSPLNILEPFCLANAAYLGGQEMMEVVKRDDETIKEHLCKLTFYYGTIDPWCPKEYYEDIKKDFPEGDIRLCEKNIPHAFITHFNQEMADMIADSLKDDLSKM
UniProt Q6UWP7: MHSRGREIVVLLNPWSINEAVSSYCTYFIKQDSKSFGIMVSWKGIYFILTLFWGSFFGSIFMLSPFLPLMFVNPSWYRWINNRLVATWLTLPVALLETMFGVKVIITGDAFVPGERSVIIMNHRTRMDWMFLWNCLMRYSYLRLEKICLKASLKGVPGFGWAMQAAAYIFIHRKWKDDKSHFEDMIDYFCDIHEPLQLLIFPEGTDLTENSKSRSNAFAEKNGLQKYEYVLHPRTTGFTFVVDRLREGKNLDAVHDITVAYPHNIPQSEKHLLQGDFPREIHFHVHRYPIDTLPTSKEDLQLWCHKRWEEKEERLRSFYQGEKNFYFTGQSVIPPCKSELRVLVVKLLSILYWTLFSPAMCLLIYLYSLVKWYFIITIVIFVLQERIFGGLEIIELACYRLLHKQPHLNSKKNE

Compound: C1=CC=C(C=C1)[C@H](COC2=CC3=C(C=C2)NC(=O)N3)NC(=O)C4=CC=CN(C4=O)CC5=CC(=C(C=C5)F)F
Assay: log2 fold change, soluble protein after heating vs DMSO (PISA); higher = thermal stabilisation; K562 cells, 10 uM, 30 min; active = over 0.2 and 3.5 SD of the protein, either way, in both replicates (recomputed)
Method in brief: (§1)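 Aliquots of K562 cells (2×10^6 cells/mL) treated with 10 μM compound for 30 min were heated for 3 min over 48°C-58°C. After pooling and extraction in PBS with 0.5% NP-40 at 4°C, soluble protein from a 21,000xg, 90 min spin was quantified by TMTpro 16plex LC-MS/MS with channel sums equalised. Thermal stability is expressed against control samples, from duplicates, as a log2 fold change.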

Target | log2 fold change
LDLRAP1 (UniProt Q5SW96) | inactive: 0.055
LRIG2 (UniProt O94898) | inactive: 0.02
LIMS1 (UniProt P48059) | inactive: -0.03
KXD1 (UniProt Q9BQD3) | inactive: -0.178
LPCAT1 (UniProt Q8NF37) | inactive: -0.017
LIMD1 (UniProt Q9UGP4) | inactive: 0.006
LMO2 isoform 3 (UniProt P25791) | inactive: -0.045
LENG1 (UniProt Q96BZ8) | inactive: 0.017
LAMTOR5 (UniProt O43504) | inactive: 0.004
LAMP1 (UniProt P11279) | inactive: -0.002
LMF2 (UniProt Q9BU23) | inactive: -0.001
LAGE3 (UniProt Q14657) | inactive: -0.018
KTN1 (UniProt Q86UP2) | inactive: 0.005
LPGAT1 (UniProt Q92604) | inactive: -0.068
LONP1 (UniProt P36776) | inactive: 0.003
LNPEP (UniProt Q9UIQ6) | inactive: 0.066
LRRC41 (UniProt Q15345) | inactive: 0.038
LOX (UniProt P28300) | inactive: -0.113

Target | log2 fold change
LINS1 (UniProt Q8NG48) | inactive: -0.089
LDHB (UniProt P07195) | inactive: 0.044
LDHA isoform 3 (UniProt P00338) | inactive: 0.047
LLPH (UniProt Q9BRT6) | inactive: 0.094
LAPTM4B (UniProt Q86VI4) | inactive: -0.12
LAS1L (UniProt Q9Y4W2) | inactive: -0.26
LDB1 (UniProt Q86U70) | inactive: 0.009
LGALS1 (UniProt P09382) | inactive: -0.009
LRRC4B (UniProt Q9NT99) | inactive: 0.062
LDHC (UniProt P07864) | inactive: 0.08
LRPAP1 (UniProt P30533) | inactive: 0.01
LBR (UniProt Q14739) | inactive: -0.105
LMLN isoform 3 (UniProt Q96KR4) | inactive: -0.045
LPP (UniProt Q93052) | inactive: -0.12
LPIN1 isoform 7 (UniProt Q14693) | inactive: -0.071
LGALS3 (UniProt P17931) | inactive: -0.103
LDAH isoform 2 (UniProt Q9H6V9) | inactive: -0.125
LCLAT1 (UniProt Q6UWP7) | inactive: 0.007

Compound: CC1=C(SC2=C1C(=N[C@H](C3=NN=C(N32)C)CC(=O)N)C4=CC=C(C=C4)Cl)C
Assay: as above
Method in brief: as §1

Target | log2 fold change
LRIG2 (UniProt O94898) | inactive: -0.005
KXD1 (UniProt Q9BQD3) | inactive: 0.079
LPCAT1 (UniProt Q8NF37) | inactive: 0.039
LIMD1 (UniProt Q9UGP4) | inactive: 0.004
LMO2 isoform 3 (UniProt P25791) | inactive: -0.002
LENG1 (UniProt Q96BZ8) | inactive: 0
LAMTOR5 (UniProt O43504) | inactive: -0.124
LAMP1 (UniProt P11279) | inactive: -0.023
LMF2 (UniProt Q9BU23) | inactive: -0.013
LAGE3 (UniProt Q14657) | inactive: 0.029
KTN1 (UniProt Q86UP2) | inactive: -0.012
LPGAT1 (UniProt Q92604) | inactive: -0.136
LONP1 (UniProt P36776) | inactive: -0.003
LNPEP (UniProt Q9UIQ6) | inactive: 0.061
LDHB (UniProt P07195) | inactive: 0.024
LDHA isoform 3 (UniProt P00338) | inactive: 0.02
LLPH (UniProt Q9BRT6) | inactive: -0.399
LAS1L (UniProt Q9Y4W2) | inactive: -0.078
LDB1 (UniProt Q86U70) | inactive: 0.011
LGALS1 (UniProt P09382) | inactive: 0.072
LRRC4B (UniProt Q9NT99) | inactive: 0.136
LRPAP1 (UniProt P30533) | inactive: -0.026
LBR (UniProt Q14739) | inactive: 0.051
LPIN1 isoform 7 (UniProt Q14693) | inactive: 0.086
LDAH isoform 2 (UniProt Q9H6V9) | inactive: 0.019
LCLAT1 (UniProt Q6UWP7) | inactive: 0.008

Compound: CC1=C2C(=CC=C1)N=C(N(C2=O)C3=CC=CC=C3C)CN4C=NC5=C(N=CN=C54)N
Assay: as above
Method in brief: as §1

Target | log2 fold change
LRIG2 (UniProt O94898) | inactive: 0.091
KXD1 (UniProt Q9BQD3) | inactive: 0.042
LPCAT1 (UniProt Q8NF37) | inactive: 0.047
LIMD1 (UniProt Q9UGP4) | inactive: -0.014
LMO2 isoform 3 (UniProt P25791) | inactive: 0
LENG1 (UniProt Q96BZ8) | inactive: 0.074
LAMTOR5 (UniProt O43504) | inactive: -0.226
LAMP1 (UniProt P11279) | inactive: -0.027
LMF2 (UniProt Q9BU23) | inactive: 0.097
LAGE3 (UniProt Q14657) | inactive: 0.053
KTN1 (UniProt Q86UP2) | inactive: 0.019
LPGAT1 (UniProt Q92604) | inactive: -0.02
LONP1 (UniProt P36776) | inactive: 0
LNPEP (UniProt Q9UIQ6) | inactive: 0.001
LDHB (UniProt P07195) | inactive: 0.028
LDHA isoform 3 (UniProt P00338) | inactive: -0.009
LLPH (UniProt Q9BRT6) | inactive: -0.586
LAS1L (UniProt Q9Y4W2) | inactive: 0.193
LDB1 (UniProt Q86U70) | inactive: 0.026
LGALS1 (UniProt P09382) | inactive: 0.031
LRRC4B (UniProt Q9NT99) | inactive: -0.06
LRPAP1 (UniProt P30533) | inactive: -0.016
LBR (UniProt Q14739) | inactive: 0.011
LPIN1 isoform 7 (UniProt Q14693) | inactive: 0.071
LDAH isoform 2 (UniProt Q9H6V9) | inactive: 0.086
LCLAT1 (UniProt Q6UWP7) | inactive: 0.035
